{
  "sequences": {"note": "Protein sequences, listed by entry. Tags and fused reporters are not part of them.", "UniProt P25454": "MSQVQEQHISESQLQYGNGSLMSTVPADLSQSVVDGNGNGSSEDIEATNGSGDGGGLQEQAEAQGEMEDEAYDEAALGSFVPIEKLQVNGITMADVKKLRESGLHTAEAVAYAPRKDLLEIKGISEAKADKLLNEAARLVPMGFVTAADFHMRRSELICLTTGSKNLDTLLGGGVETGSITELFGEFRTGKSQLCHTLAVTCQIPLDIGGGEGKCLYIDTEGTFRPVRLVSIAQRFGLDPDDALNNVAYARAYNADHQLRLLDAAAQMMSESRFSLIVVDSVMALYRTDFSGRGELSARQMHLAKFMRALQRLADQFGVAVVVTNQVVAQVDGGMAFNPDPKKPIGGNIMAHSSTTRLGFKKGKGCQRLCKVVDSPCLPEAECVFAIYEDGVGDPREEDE"},
  "source": "paper PMC6907854",
  "binders": {"B1": {"name": "Dmc1 (protein, UniProt P25453 1-334)", "chain": "MSVTGTEIDSDTAKNILSVDELQNYGINASDLQKLKSGGIYTVNTVLSTTRRHLCKIKGLSEVKVEKIKEAAGKIIQVGFIPATVQLDIRQRVYSLSTGSKQLDSILGGGIMTMSITEVFGEFRCGKTQMSHTLCVTTQLPREMGGGEGKVAYIDTEGTFRPERIKQIAEGYELDPESCLANVSYARALNSEHQMELVEQLGEELSSGDYRLIVVDSIMANFRVDYCGRGELSERQQKLNQHLFKLNRLAEEFNVAVFLTNQVQSDPGASALFASADGRKPIGGHVLAHASATRILLRKGRGDERVAKLQDSPDMPEKECVYVIGEKGITDSSD"}},
  "key": {"[1]": {"target": "Dmc1 (S. cerevisiae) (UniProt P25453)", "assay": "two-hybrid; meiotic two-hybrid in SK-1 diploids; lexA DNA-binding domain fusions and Gal4 activation domain fusions with a lex-op::lacZ reporter; β-galactosidase assays 6 h and 18 h after induction of sporulation; done in MEI5+ and mei5 backgrounds (equivalent Rad51-Dmc1 signal in both)"}, "[2]": {"target": "Rad51 (S. cerevisiae) (UniProt P25454)", "assay": "two-hybrid; meiotic two-hybrid in SK-1 diploids; lexA DNA-binding domain fusions and Gal4 activation domain fusions with a lex-op::lacZ reporter; β-galactosidase assays 6 h and 18 h after induction of sporulation; done in MEI5+ and mei5 backgrounds (equivalent Rad51-Dmc1 signal in both)"}},
  "note": "Results are given in words; binding and its absence hold for the method and conditions named. Some results given as binding are weak or reduced against the parent protein; the word gives no strength.",
  "data": [
    {"binder": "B1", "values": [
      {"measurement": "binding", "setting": "[1]", "result": "binds"},
      {"measurement": "binding", "setting": "[2]", "result": "binds weakly"}
    ]}
  ]
}
